Experimental data as given in article PMC11301343.
Positions count from the first letter of the chain named. Results are given in words; binding and its absence hold for the method and conditions named. In cells and extracts the contact can be indirect. Some binding calls cover weakened binding; strength is not graded here. Sequences can lack the tags named with a protein.

Protein sequences, listed by entry. Tags and fused reporters are not part of them.
UniProt Q9H4L4: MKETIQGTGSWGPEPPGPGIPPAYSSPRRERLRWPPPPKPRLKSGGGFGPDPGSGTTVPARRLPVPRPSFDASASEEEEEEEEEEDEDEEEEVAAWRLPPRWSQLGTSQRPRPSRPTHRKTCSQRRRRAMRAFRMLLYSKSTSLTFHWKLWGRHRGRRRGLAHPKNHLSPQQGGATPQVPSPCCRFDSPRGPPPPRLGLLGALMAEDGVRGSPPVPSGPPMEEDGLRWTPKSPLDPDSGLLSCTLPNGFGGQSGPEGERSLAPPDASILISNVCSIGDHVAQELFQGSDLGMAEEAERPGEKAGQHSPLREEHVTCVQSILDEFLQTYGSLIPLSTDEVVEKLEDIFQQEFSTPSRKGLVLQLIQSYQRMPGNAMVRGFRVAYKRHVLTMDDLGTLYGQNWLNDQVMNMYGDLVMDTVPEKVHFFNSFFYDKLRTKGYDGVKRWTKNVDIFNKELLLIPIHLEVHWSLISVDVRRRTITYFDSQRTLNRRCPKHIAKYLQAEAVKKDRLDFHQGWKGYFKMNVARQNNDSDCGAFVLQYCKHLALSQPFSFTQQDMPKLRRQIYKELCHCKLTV

Legend:
[1] = biological target: T1, 3 × flag-FSP1 (human, in HEK293T) (human) (UniProt Q9BRQ8); assay: co-IP; HEK293T cells co-transfected for 36 h (flag-SENP3 + HA-FSP1, or GFP-SENP3 + 3xflag-FSP1; vectors as control); lysates incubated with anti-Flag M2 magnetic beads overnight at 4 °C; IB with anti-HA or anti-GFP
T1 sequence: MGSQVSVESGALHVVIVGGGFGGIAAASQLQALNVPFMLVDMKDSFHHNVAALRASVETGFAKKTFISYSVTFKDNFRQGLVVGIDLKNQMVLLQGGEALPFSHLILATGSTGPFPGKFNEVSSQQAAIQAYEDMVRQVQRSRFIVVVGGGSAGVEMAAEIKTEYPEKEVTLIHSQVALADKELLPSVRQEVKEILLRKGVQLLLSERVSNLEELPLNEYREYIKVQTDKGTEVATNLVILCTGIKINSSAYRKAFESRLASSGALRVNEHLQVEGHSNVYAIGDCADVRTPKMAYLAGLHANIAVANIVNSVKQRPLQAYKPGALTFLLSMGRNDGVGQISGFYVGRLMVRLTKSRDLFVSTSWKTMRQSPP

[2] = biological target: T2, 3 × flag-FSP1 (human, stably overexpressed in HT1080) (human) (UniProt Q9BRQ8); assay: co-IP; HT1080 cells stably overexpressing 3xflag-FSP1 or 3xflag-FSP1 K162R; immunoprecipitation with FLAG-M2 beads; IB with anti-SENP3 antibody
T2 sequence: T1 sequence

[3] = biological target: T3, 3 × flag-FSP1 K162R mutant (human, stably overexpressed in HT1080) (human) (UniProt Q9BRQ8); assay: as above
T3 sequence: T1 sequence with K162R

flag-SENP3 (human) = flag-SENP3 (human) (UniProt Q9H4L4); assay: co-IP; HEK293T cells co-transfected for 36 h (flag-SENP3 + HA-FSP1, or GFP-SENP3 + 3xflag-FSP1; vectors as control); lysates incubated with anti-Flag M2 magnetic beads overnight at 4 °C; IB with anti-HA or anti-GFP

GFP-SENP3 (from UniProt Q9H4L4 1-574) (enzyme)
binding [1]: binds

SENP3 in HT1080 cells (detected with anti-SENP3 antibody) (from UniProt Q9H4L4 1-574) (enzyme)
binding [2]: binds | binding [3]: binds

B1: human HA-FSP1 (protein, UniProt Q9BRQ8-1 1-373)
chain: T1 sequence
binding (flag-SENP3 (human)): binds
